Assay results: publication doi:10.1101/2024.02.27.582366
No constants are given. Whether binding was seen depends on the method and setting. In cells and extracts the contact can be indirect. Some results given as binding are weak or reduced against the parent protein; the word gives no strength. Where a sequence is shown, tags or fusion partners need not be part of it.

Protein sequences, listed by entry. Tags and fused reporters are not part of them.
UniProt P62746: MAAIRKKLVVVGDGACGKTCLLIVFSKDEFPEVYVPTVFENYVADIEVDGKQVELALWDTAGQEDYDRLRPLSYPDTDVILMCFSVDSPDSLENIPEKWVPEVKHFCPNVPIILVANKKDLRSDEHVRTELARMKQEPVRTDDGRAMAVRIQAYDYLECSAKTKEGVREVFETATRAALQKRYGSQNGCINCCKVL

Target: T1, Flag-tagged human Thioredoxin1 Cys35Ser mutant (flag-hTrx1C35S) (human) (UniProt P10599)
T1 sequence: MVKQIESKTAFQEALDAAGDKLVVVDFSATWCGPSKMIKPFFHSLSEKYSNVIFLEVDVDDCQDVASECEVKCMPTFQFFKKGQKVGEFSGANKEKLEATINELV
Assay: co-IP

- binding: binds
Substance: RhoB (from UniProt P62746 1-196)
